Reference: the supplement of paper PMC9135407
“And” between values parts separate entries of the source, which are not always exact repeats. Identical values can stand only once. Counter-ions that a name gives are not always drawn. ± gives the standard deviation of the averaged measurements. Some of the results follow. Plates or batches differ in their baseline, so values are only roughly comparable.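 Culture-activated primary human stellate myofibroblasts, where regained lipid droplets signal inactivation. Value: share of Hoechst-counted cells above a per-plate Bodipy cutoff, in duplicate wells, with DMSO negative and nortriptyline positive controls on each plate. Hits: a control-normalized score above the plate's top-tenth-percentile nortriptyline wells, or one of a plate's three best wells. Final well concentrations are not given.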

Tested on: primary human hepatic stellate cells (donor 1)
Experiment: percent Bodipy-positive cells; higher = more lipid droplet accumulation
Settings: 48 h
Protocol: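 Primary lipid accumulation screen in primary human hepatic stellate cell myofibroblasts (donor 1, passage 8) in 384-well plates. 100 nL of library compound was pin-transferred into 30 µL medium in duplicate, and cells were treated for 48 h. The 'Scaled' score combines distance from plate baseline, toxicity and reproducibility penalties, and is normalised to nortriptyline (positive) and DMSO (negative) controls on each plate. A hit is defined as scaled >0.85 or among the top 3 wells per plate.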

[1] = library stock concentration: 10 mM
[2] = library stock concentration: 400 uM
[3] = library stock concentration: 80 uM
[4] = library stock concentration: 2 mM
[5] = library stock concentration: 3.33 mM
[6] = library stock concentration: 8.1 mM
[7] = library stock concentration: 1 mM

## COC(=O)C1=C(C)NC(C)=C([N+](=O)[O-])[C@H]1c1ccccc1C(F)(F)F
[1]
  percent Bodipy-positive cells: 6.26 ± 1.6%

## O=C(Nc1ccccc1)C12CC1C(=NO)c1ccccc1O2 (centres undefined)
[1]
  percent Bodipy-positive cells: 7.44 ± 2.6%

## N#CCNC(=O)c1ccc(-c2ccnc(Nc3ccc(N4CCOCC4)cc3)n2)cc1 [Momelotinib (CYT387) (0.4 mM)]
[2]
  percent Bodipy-positive cells: 12.6 ± 6%

## N#CCNC(=O)c1ccc(-c2ccnc(Nc3ccc(N4CCOCC4)cc3)n2)cc1
[3]
  percent Bodipy-positive cells: 17.7 ± 4.7%
[2]
  percent Bodipy-positive cells: 20.4 ± 3.8%
[4]
  percent Bodipy-positive cells: 13 ± 1.3%
[1]
  percent Bodipy-positive cells: 98.5 ± 2.1%

## O=C(/C=C/c1ccc(O)cc1)c1ccc(O)cc1O [Isoliquiritigenin]
[5]
  percent Bodipy-positive cells: 8.73 ± 1.2%

## Cc1c(NC(=O)c2cccnc2)c(=O)n(-c2ccccc2)n1C [Nifenazone]
  percent Bodipy-positive cells: 27.5 ± 7.6%
[1]
  percent Bodipy-positive cells: 38.7 ± 6.2%

## CS(=O)(=O)OCCCCOS(C)(=O)=O [Busulfan]
[5]
  percent Bodipy-positive cells: 9.72 ± 0.8%
[6]
  percent Bodipy-positive cells: 4.43 ± 1.5%
[1]
  percent Bodipy-positive cells: 11.8% and 12.3% and 23.8%

## CN(C)C(=O)c1ccc(S(=O)(=O)c2ccc(NC(=O)C(C)(O)C(F)(F)F)c(Cl)c2)cc1 (centres undefined)
[5]
  percent Bodipy-positive cells: 37.3 ± 10%
[1]
  percent Bodipy-positive cells: 33.2 ± 3.5%

## CC[C@@H]1C(=O)OC[C@@H]1Cc1cncn1C [(+)-Pilocarpine hydrochloride]
[1]
  percent Bodipy-positive cells: 23.1 ± 3.1%

## CC[C@@H]1C(=O)OC[C@@H]1Cc1cncn1C [Pilocarpine HCl]
[5]
  percent Bodipy-positive cells: 12.3 ± 0.17%
Library stock concentration: 9.6 mM
  percent Bodipy-positive cells: 10.2 ± 1.5%
[1]
  percent Bodipy-positive cells: 41.8 ± 5.9%

## CC[C@@H]1C(=O)OC[C@@H]1Cc1cncn1C [Pilocarpine nitrate]
  percent Bodipy-positive cells: 27.4 ± 2.8%
[1]
  percent Bodipy-positive cells: 20.5% and 27.1%

## CC[C@@H]1C(=O)OC[C@@H]1Cc1cncn1C
[1]
  percent Bodipy-positive cells: 10.1 ± 2.1%

## CC[C@@H]1C(=O)OC[C@@H]1Cc1cncn1C [Pilocarpine hydrochloride]
[1]
  percent Bodipy-positive cells: 5.61 ± 0.33%

## CN1CCc2c(c3ccccc3n2Cc2ccc(C(=O)NO)cc2)C1 [Tubastatin A HCl]
[5]
  percent Bodipy-positive cells: 13.4 ± 9.4%
[1]
  percent Bodipy-positive cells: 56.2 ± 11%

## CN1CCc2c(c3ccccc3n2Cc2ccc(C(=O)NO)cc2)C1 [Tubastatin A]
[5]
  percent Bodipy-positive cells: 7.94 ± 0.69%
[1]
  percent Bodipy-positive cells: 6.35 ± 1.7%

## CC(=N)NCCCC[C@H](N)C(=O)O [L-NIL hydrochloride]
[1]
  percent Bodipy-positive cells: 5.45 ± 0.95%

## CN1C(=O)CC[C@H]1c1cccnc1 [Cotinine]
[1]
  percent Bodipy-positive cells: 8.13 ± 3.8%
Library stock concentration: 11.3 mM
  percent Bodipy-positive cells: 2.62 ± 1.1%

## CN1C(=O)CC[C@H]1c1cccnc1 [Cotinine (-)]
  percent Bodipy-positive cells: 24.3 ± 8.4%

## O=C(O)CCC/C=C\C[C@@H]1[C@@H](/C=C/C(=O)CCc2ccccc2)[C@H](O)C[C@@H]1O [15-keto-17-phenyl trinor Prostaglandin F2.alpha.]
[7]
  percent Bodipy-positive cells: 13.5 ± 3.3%

## Cc1c(CN2CCN(C(=O)[C@H](C)O)CC2)sc2c(N3CCOCC3)nc(-c3cnc(N)nc3)nc12
[3]
  percent Bodipy-positive cells: 25.3 ± 8.9%
[2]
  percent Bodipy-positive cells: 11.6 ± 3%
[4]
  percent Bodipy-positive cells: 6.83 ± 1.8%
[5]
  percent Bodipy-positive cells: 7.73 ± 2.8%
[1]
  percent Bodipy-positive cells: 9.3% and 6.31%

## CC(C)(CO)c1cc2cc(NC(=O)C3(c4ccc5c(c4)OC(F)(F)O5)CC3)c(F)cc2n1C[C@@H](O)CO
[5]
  percent Bodipy-positive cells: 11.3 ± 5%
[1]
  percent Bodipy-positive cells: 28.5 ± 1%

## Cc1cnc(-c2cc(N3CCN(C(=O)CCS(C)(=O)=O)CC3)ncc2Cl)c(C)c1
[5]
  percent Bodipy-positive cells: 9.26 ± 2.7%
[1]
  percent Bodipy-positive cells: 11.7 ± 0.54%

## COC(=O)c1ccc2c(c1)NC(=O)C2=C(Nc1ccc(N(C)C(=O)CN2CCN(C)CC2)cc1)c1ccccc1
[1]
  percent Bodipy-positive cells: 90.5 ± 1.8%

## c1nc2c(NC3CCCCC3)nc(Nc3ccc(N4CCOCC4)cc3)nc2[nH]1 [Reversine]
[5]
  percent Bodipy-positive cells: 9.78 ± 0.45%

## COc1cc2nccc(Oc3ccc(NC(=O)NC4CC4)c(Cl)c3)c2cc1C(N)=O
[2]
  percent Bodipy-positive cells: 11.7 ± 2.6%
[4]
  percent Bodipy-positive cells: 14.9 ± 5.1%
[1]
  percent Bodipy-positive cells: 19.2 ± 6.2%

## COc1cc2nccc(Oc3ccc(NC(=O)NC4CC4)c(Cl)c3)c2cc1C(N)=O [Lenvatinib (E7080)]
[5]
  percent Bodipy-positive cells: 5.68 ± 0.6%
[1]
  percent Bodipy-positive cells: 10.8 ± 6.2%

## CCC(C)(Oc1ccc(C2(c3ccc(OC(C)(CC)C(=O)O)cc3)CCCCC2)cc1)C(=O)O (centres undefined) [Clinofibrate]
[5]
  percent Bodipy-positive cells: 13.2 ± 5.6%
[1]
  percent Bodipy-positive cells: 15.1 ± 4.8%

## C[C@@H](O[C@H]1OCCN(Cc2nn(P(=O)(O)O)c(=O)[nH]2)[C@H]1c1ccc(F)cc1)c1cc(C(F)(F)F)cc(C(F)(F)F)c1 [Fosaprepitant dimeglumine salt]
[5]
  percent Bodipy-positive cells: 3.65 ± 0.88%
[1]
  percent Bodipy-positive cells: 12.3 ± 4.3%

## CCCCCCCCCC(=O)N[C@H](CN1CCOCC1)[C@H](O)c1ccccc1 (racemic) [DL-threo-PDMP (hydrochloride)]
[7]
  percent Bodipy-positive cells: 8 ± 0.58%

## CC/C=C\C/C=C\C/C=C\CCCCCCCCCCCC(=O)O [Docosatrienoic acid (22:3 n-3)]
[7]
  percent Bodipy-positive cells: 11.9 ± 11%

## c1ccc2c(CC3=NCCN3)cccc2c1 [Naphazoline HCl]
[5]
  percent Bodipy-positive cells: 11.69 ± 0.11%
Library stock concentration: 9.5 mM
  percent Bodipy-positive cells: 22.2 ± 1.5%
[1]
  percent Bodipy-positive cells: 35.5 ± 16%

## c1ccc2c(CC3=NCCN3)cccc2c1 [Naphazoline hydrochloride]
  percent Bodipy-positive cells: 34.4 ± 12%
[6]
  percent Bodipy-positive cells: 7.3 ± 1.5%
